Data published in article PMC7819943, “Rice protein-binding microarrays: a tool to detect cis-acting elements near promoter regions in rice”.
This is one part of the list.

biological target: T1, OsSMF1 (Oryza sativa, UniProt Q6ZLB0 1-436); assay: protein-binding microarray (RPBM); PBS, 2% BSA, 51.3 ng/ul salmon testes DNA, 50 uM zinc acetate, 200 nM TF, 25 C, 1 h; high values mean tight binding; conditions: protein: recombinant; tags: N-terminal polyhistidine and DsRed monomer fusion (pET32a); chain copies: 2; label: CyDye5-dUTP incorporated in the synthesized complementary strand; 3' TTTTT single-stranded linker to array surface; dsDNA, one strand shown
T1 sequence: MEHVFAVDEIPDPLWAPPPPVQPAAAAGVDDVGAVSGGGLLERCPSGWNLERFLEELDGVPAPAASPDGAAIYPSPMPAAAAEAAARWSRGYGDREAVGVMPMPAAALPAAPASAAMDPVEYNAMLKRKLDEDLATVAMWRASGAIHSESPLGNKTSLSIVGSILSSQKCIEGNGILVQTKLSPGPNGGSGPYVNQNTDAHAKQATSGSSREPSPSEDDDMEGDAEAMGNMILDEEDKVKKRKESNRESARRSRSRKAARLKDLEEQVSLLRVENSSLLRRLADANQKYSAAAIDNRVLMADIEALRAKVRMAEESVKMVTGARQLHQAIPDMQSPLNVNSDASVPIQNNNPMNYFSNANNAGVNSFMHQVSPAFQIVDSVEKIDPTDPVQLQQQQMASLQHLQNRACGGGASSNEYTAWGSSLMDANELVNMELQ
How it was run: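 Binding signal is reported as fluorescence intensity per feature (arbitrary units) from an Axon 4000B scanner. Incubation used 200 nM of each Ni–NTA-purified, N-terminally polyhistidine- and DsRed-fused transcription factor from E. coli BL21-CodonPlus on a double-stranded custom Agilent array for 1 h at 25 °C, with 50 µM zinc acetate in the buffer, followed by washing.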

Row | Sequence | binding signal
1 | TGCGCGCTGCACGGCCGCACCCAATAATCTTCCTCTCCGTCGGAGTCACCTAGTGCAG | 23300 fluorescence intensity (a.u.)
2 | AACGATGAGGTGTACATTTTCTAGATTAGTCCTCCCTATCCGGAGTCACCTAGTGCAG | 5950 fluorescence intensity (a.u.)
3 | ATATCCGATGTGACACGGCAAAAGTTTTCACCCTAGATCTCGGAGTCACCTAGTGCAG | 7800 fluorescence intensity (a.u.)
4 | CTTCGAGTAGCGCACACGTGTGCGGTGCGCGGCACTACACCGGAGTCACCTAGTGCAG | 4830 fluorescence intensity (a.u.)
5 | GAGGAGAGGGAGAGAGGCTGCGAGTGGAGGCCACGTACGGCGGAGTCACCTAGTGCAG | 6620 fluorescence intensity (a.u.)
6 | CGTGTTCGATTCCGCTGCTATCCACGTCGCTACGCGCCACCGGAGTCACCTAGTGCAG | 7020 fluorescence intensity (a.u.)
7 | AATTGCTTTGCTGGCAGGGTGATGTGCCAATGGTTTCTTTCGGAGTCACCTAGTGCAG | 5930 fluorescence intensity (a.u.)
8 | ACTAAAATGATGACAACAAATCTACGCAGCTGCCTGCTTTCGGAGTCACCTAGTGCAG | 4560 fluorescence intensity (a.u.)
9 | CTGCCGCCCTAGTGGAGAGCGGCAAGCTGACGTGGCAAACCGGAGTCACCTAGTGCAG | 20400 fluorescence intensity (a.u.)
10 | TACCTAGGACGACACGATTACGCGTAATAATATTTGGAGACGGAGTCACCTAGTGCAG | 3380 fluorescence intensity (a.u.)
11 | GGGGATCCGATAGATGAGGTTTTCATATCGCTGATCACTCCGGAGTCACCTAGTGCAG | 3190 fluorescence intensity (a.u.)
12 | CCAGGTCAGATGATGACCACTCTCCTCGGCATTTCCGATTCGGAGTCACCTAGTGCAG | 3840 fluorescence intensity (a.u.)
13 | AGCGTCCACGTCTCCCCGACGATTGCTTTATAAAACCACCCGGAGTCACCTAGTGCAG | 4670 fluorescence intensity (a.u.)
14 | TGCTGCTTCGTCCCGGCCGTCGGCTACGCGCTCGGGTACACGGAGTCACCTAGTGCAG | 3250 fluorescence intensity (a.u.)
15 | CTATTTGTGTCTTGTGTACTTCAACGTCTTCCTCTTATGACGGAGTCACCTAGTGCAG | 3680 fluorescence intensity (a.u.)
16 | TTACGTATGCATGACTAATTGACATATCCATTATATTGGTCGGAGTCACCTAGTGCAG | 8440 fluorescence intensity (a.u.)
17 | AGCTCCGTGGAGATAAGCTTGCTCTCATACCATTTGCTGACGGAGTCACCTAGTGCAG | 3590 fluorescence intensity (a.u.)
18 | AGCGGGCCCACCTCCACCTCAGCCCAGTCGCCCGTTGCCGCGGAGTCACCTAGTGCAG | 3380 fluorescence intensity (a.u.)
19 | AATCCAACCCCAACCAATCATTCGCTGTGCATGTATGCAGCGGAGTCACCTAGTGCAG | 19500 fluorescence intensity (a.u.)
20 | GTCTGTGTATCAAGATGAAATATAACTATCAAAAGTAGATCGGAGTCACCTAGTGCAG | 20400 fluorescence intensity (a.u.)
21 | CCTTATCCTGTTGCTTGTCTGCTATCGTTGCCTCAGCAGGCGGAGTCACCTAGTGCAG | 3470 fluorescence intensity (a.u.)

Another view of some results above.

| Row | Sequence | binding signal |
| --- | --- | --- |
| 10 | TACCTAGGACGACACGATTACGCGTAATAATATTTGGAGACGGAGTCACCTAGTGCAG | 3380 fluorescence intensity (a.u.) |
| 11 | GGGGATCCGATAGATGAGGTTTTCATATCGCTGATCACTCCGGAGTCACCTAGTGCAG | 3190 fluorescence intensity (a.u.) |
| 12 | CCAGGTCAGATGATGACCACTCTCCTCGGCATTTCCGATTCGGAGTCACCTAGTGCAG | 3840 fluorescence intensity (a.u.) |
| 13 | AGCGTCCACGTCTCCCCGACGATTGCTTTATAAAACCACCCGGAGTCACCTAGTGCAG | 4670 fluorescence intensity (a.u.) |
| 14 | TGCTGCTTCGTCCCGGCCGTCGGCTACGCGCTCGGGTACACGGAGTCACCTAGTGCAG | 3250 fluorescence intensity (a.u.) |
| 15 | CTATTTGTGTCTTGTGTACTTCAACGTCTTCCTCTTATGACGGAGTCACCTAGTGCAG | 3680 fluorescence intensity (a.u.) |
| 16 | TTACGTATGCATGACTAATTGACATATCCATTATATTGGTCGGAGTCACCTAGTGCAG | 8440 fluorescence intensity (a.u.) |
| 17 | AGCTCCGTGGAGATAAGCTTGCTCTCATACCATTTGCTGACGGAGTCACCTAGTGCAG | 3590 fluorescence intensity (a.u.) |
| 18 | AGCGGGCCCACCTCCACCTCAGCCCAGTCGCCCGTTGCCGCGGAGTCACCTAGTGCAG | 3380 fluorescence intensity (a.u.) |
| 19 | AATCCAACCCCAACCAATCATTCGCTGTGCATGTATGCAGCGGAGTCACCTAGTGCAG | 19500 fluorescence intensity (a.u.) |
| 20 | GTCTGTGTATCAAGATGAAATATAACTATCAAAAGTAGATCGGAGTCACCTAGTGCAG | 20400 fluorescence intensity (a.u.) |
| 21 | CCTTATCCTGTTGCTTGTCTGCTATCGTTGCCTCAGCAGGCGGAGTCACCTAGTGCAG | 3470 fluorescence intensity (a.u.) |

Continuation.

Row | Sequence | binding signal
22 | CATATCCTCAAGTAGAATTCAAATCCAGTCACATTGCCACCGGAGTCACCTAGTGCAG | 4130 fluorescence intensity (a.u.)
23 | ATGTCGTAGCTTTTAATTATATACTACTATAAATTTGATTCGGAGTCACCTAGTGCAG | 43700 fluorescence intensity (a.u.)
24 | GAGAGAGAGGGAGGGAGAGGCTGGCTGGGGAGACGGAACACGGAGTCACCTAGTGCAG | 3460 fluorescence intensity (a.u.)
25 | AGAAATCTAGGGTTTTCATCAGCTTTCTCCCTGCATAAAACGGAGTCACCTAGTGCAG | 13600 fluorescence intensity (a.u.)
26 | CAATACGTTGTTTCTATTCATTGATATCTTGACATCTTGTCGGAGTCACCTAGTGCAG | 3220 fluorescence intensity (a.u.)
27 | CGCTGACTCAGCCGCCATGTCAGCCAAAACTGGGGTCAAACGGAGTCACCTAGTGCAG | 12700 fluorescence intensity (a.u.)
28 | GCATGCATCATCTTATTGTCTAATTTTGAGAGAATTCACGCGGAGTCACCTAGTGCAG | 6080 fluorescence intensity (a.u.)
29 | ATATATATACGTGTTCTTATCTTAACGGTACACGTTACAGCGGAGTCACCTAGTGCAG | 4540 fluorescence intensity (a.u.)
30 | AGCGCCGACCGGCTCTGGACGCTGCGCGACGCGTGGCCACCGGAGTCACCTAGTGCAG | 4190 fluorescence intensity (a.u.)
31 | GACGGTTAGAGGCCACCGTGTCACCGTGCTTCTCCAATATCGGAGTCACCTAGTGCAG | 3140 fluorescence intensity (a.u.)
32 | CCCCGCGCCTTGATATTTGCAACTGCAAATTTGTCTATATCGGAGTCACCTAGTGCAG | 3650 fluorescence intensity (a.u.)
33 | TGCGCGCAGAGTTTGCAAGGCCAGGTCATCCATGCTCGCCCGGAGTCACCTAGTGCAG | 5100 fluorescence intensity (a.u.)
34 | TGCGCATCGCTTCTGAGCTCGATCTACGTCGTCCGGCCGGCGGAGTCACCTAGTGCAG | 3160 fluorescence intensity (a.u.)
35 | CACATATACAGCAGACAAAGCCCAAGAGCATCATCGATTCCGGAGTCACCTAGTGCAG | 8030 fluorescence intensity (a.u.)
36 | GCAGCCCGGCACATGACAGGGATCGCGTCCACCGACACATCGGAGTCACCTAGTGCAG | 4370 fluorescence intensity (a.u.)
37 | ATGTGGAAGGGGTAGAGTTGTAATTTTGCATATGTAACAACGGAGTCACCTAGTGCAG | 3190 fluorescence intensity (a.u.)
38 | CCTAATTGACAAATGATTTCACCACGTCCCTTTCCATTTTCGGAGTCACCTAGTGCAG | 3910 fluorescence intensity (a.u.)
39 | CTCCACTACTTGCATTGTTTATCTGCGTCATCGTTTCCTTCGGAGTCACCTAGTGCAG | 8830 fluorescence intensity (a.u.)
40 | AATTAATAAGTAGATGACGTGGATAAAATTAGAATTGATGCGGAGTCACCTAGTGCAG | 13500 fluorescence intensity (a.u.)
41 | CGAGCTAAGCCACTCCACCGCCGATTGATCGCGTCACGGCCGGAGTCACCTAGTGCAG | 4540 fluorescence intensity (a.u.)
42 | GCCAGACCAAACAGACACGTACTACATCCTGCAGCAAGCCCGGAGTCACCTAGTGCAG | 5060 fluorescence intensity (a.u.)
